{"source": "patent US20140309404A1", "target": "Cynomolgus monkey BMP-6 (cynomolgus monkey)", "assay": "SPR (BIAcore), 37 C; said of Antibody I from the Fab data of Table 4", "note": "Results are given in words; binding and its absence hold for the method and conditions named. A result given as binding can be weak or reduced; the word gives no strength.", "data": [{"binder": "Antibody I (antibody, human IgG4 S228P, kappa, F234A L235A, V domains shown) VH: QVQLVQSGAEVKKPGSSVKVSCKASGYTFTSYAMHWVRQAPGQGLEWMGYINPYNDGTKYNENFKGRVTITADESTSTAYMELSSLRSEDTAVYYCARRPFGNAMDIWGQGTLVTVSS VL: DIQMTQSPSSLSASVGDRVTITCRSSENIYRNLAWYQQKPGKAPKLLIYAATNLADGVPSRFSGSGSGTDFTLTISSLQPEDFATYYCQGIWGTPLTFGGGTKVEIKR", "values": [{"measurement": "binding", "result": "binds"}]}]}
